Results are given in words; binding and its absence hold for the method and conditions named. In cells and extracts the contact can be indirect. Some binding calls cover weakened binding; strength is not graded here.
Experiments:
[1] = molecular target: C-terminal Flag-tagged APH1aL (human) (UniProt Q96BI3); assay: co-IP; HEK293T cells expressing PS1, Pen2, NCT, APH1aL-Flag and BACE1, treated with 3 μM XYT1032, UV-irradiated, lysed in 1% CHAPSO buffer, click reaction, anti-Flag resin, western blot
[2] = molecular target: C-terminal Flag-tagged APH1aL (human) (UniProt Q96BI3); assay: co-IP; as a4 but cells lysed in 1% Triton X-100 buffer; anti-Flag resin, western blot
Kv1.1-CTEV = Kv1.1-CTEV (UniProt Q09470); assay: split reporter; split-TEV assay: -NTEV and -CTEV fusions co-transfected in HEK293MSR cells with ERT2-tev-LexA-Gal4 and a LexA-op luciferase reporter; luciferase read 24 h after transfection; also after 16 h with chemicals

Protein sequences, listed by entry. Tags and fused reporters are not part of them. Residues count along the entry.
UniProt Q96BI3: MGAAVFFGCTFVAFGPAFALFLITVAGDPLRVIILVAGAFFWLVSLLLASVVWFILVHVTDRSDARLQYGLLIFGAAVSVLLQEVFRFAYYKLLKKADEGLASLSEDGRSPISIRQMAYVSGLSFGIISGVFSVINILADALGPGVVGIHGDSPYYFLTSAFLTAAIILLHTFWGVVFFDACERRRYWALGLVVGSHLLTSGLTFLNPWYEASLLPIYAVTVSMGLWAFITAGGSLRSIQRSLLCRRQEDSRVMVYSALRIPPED
UniProt Q09470: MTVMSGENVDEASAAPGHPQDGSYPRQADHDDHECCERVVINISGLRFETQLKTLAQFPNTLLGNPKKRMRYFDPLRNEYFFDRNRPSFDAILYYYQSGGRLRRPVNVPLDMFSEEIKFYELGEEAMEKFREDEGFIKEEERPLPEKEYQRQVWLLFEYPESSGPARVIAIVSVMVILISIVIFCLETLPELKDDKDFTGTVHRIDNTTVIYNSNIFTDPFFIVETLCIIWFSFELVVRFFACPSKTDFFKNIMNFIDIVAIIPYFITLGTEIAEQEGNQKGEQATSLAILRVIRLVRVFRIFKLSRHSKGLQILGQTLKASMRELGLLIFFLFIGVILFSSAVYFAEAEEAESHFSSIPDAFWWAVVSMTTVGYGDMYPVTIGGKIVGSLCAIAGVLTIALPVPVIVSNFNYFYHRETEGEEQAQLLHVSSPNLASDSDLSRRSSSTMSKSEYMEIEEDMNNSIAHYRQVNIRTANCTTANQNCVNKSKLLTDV
UniProt P56817, residues 46-501: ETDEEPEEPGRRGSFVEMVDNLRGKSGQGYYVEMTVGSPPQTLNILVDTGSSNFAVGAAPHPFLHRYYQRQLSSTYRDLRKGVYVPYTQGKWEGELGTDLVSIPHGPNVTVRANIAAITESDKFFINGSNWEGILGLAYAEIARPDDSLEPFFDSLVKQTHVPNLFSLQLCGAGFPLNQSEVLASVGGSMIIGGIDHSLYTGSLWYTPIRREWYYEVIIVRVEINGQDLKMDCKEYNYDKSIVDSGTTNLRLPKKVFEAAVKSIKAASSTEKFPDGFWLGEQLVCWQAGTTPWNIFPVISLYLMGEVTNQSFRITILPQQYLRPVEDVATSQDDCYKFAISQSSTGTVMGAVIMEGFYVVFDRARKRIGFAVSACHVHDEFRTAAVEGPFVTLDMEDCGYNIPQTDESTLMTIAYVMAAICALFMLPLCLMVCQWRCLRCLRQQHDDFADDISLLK

binding [1]	binding (Kv1.1-CTEV)	Molecule	binding [2]
binds		BACE1 (from UniProt P56817 46-501)	no binding (condition: 1% Triton X-100 extracts)
	binds	NTEV-KvBeta1 (protein, UniProt Q14722 1-419) MLAARTGAAGSQISEENTKLRRQSGFSVAGKDKSPKKASENAKDSSLSPSGESQLRARQLALLREVEMNWYLKLCDLSSEHTTVCTTGMPHRNLGKSGLRVSCLGLGTWVTFGGQISDEVAERLMTIAYESGVNLFDTAEVYAAGKAEVILGSIIKKKGWRRSSLVITTKLYWGGKAETERGLSRKHIIEGLKGSLQRLQLEYVDVVFANRPDSNTPMEEIVRAMTHVINQGMAMYWGTSRWSAMEIMEAYSVARQFNMIPPVCEQAEYHLFQREKVEVQLPELYHKIGVGAMTWSPLACGIISGKYGNGVPESSRASLKCYQWLKERIVSEEGRKQQNKLKDLSPIAERLGCTLPQLAVAWCLRNEGVSSVLLGSSTPEQLIENLGAIQVLPKMTSHVVNEIDNILRNKPYSKKDYRS	
